Measurements from publication PMC10649565.
These are yes or no findings as the source states them, for the method shown. In cells and extracts the contact can be indirect. Some binding calls cover weakened binding; strength is not graded here.

The chains behind the UniProt entries cited, without tags or fusion partners. Where a name states a change or a piece, a line headed by the entry shows the natural chain unless it says otherwise.
UniProt O14893: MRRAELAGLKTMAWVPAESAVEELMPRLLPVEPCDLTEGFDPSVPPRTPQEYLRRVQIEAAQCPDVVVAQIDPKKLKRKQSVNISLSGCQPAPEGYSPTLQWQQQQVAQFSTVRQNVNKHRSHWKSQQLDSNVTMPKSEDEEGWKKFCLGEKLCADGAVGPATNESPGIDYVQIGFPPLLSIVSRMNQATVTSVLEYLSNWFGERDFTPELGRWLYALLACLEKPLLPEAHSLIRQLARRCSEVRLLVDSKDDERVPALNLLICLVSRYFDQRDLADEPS
UniProt Q16637: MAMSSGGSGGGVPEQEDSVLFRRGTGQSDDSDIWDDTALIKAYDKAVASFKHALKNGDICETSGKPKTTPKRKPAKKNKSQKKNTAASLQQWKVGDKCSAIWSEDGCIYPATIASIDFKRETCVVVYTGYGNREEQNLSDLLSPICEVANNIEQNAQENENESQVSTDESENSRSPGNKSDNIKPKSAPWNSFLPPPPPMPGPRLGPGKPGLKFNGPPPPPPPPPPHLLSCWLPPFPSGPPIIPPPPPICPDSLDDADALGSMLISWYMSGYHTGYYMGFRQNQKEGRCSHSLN
UniProt P57678: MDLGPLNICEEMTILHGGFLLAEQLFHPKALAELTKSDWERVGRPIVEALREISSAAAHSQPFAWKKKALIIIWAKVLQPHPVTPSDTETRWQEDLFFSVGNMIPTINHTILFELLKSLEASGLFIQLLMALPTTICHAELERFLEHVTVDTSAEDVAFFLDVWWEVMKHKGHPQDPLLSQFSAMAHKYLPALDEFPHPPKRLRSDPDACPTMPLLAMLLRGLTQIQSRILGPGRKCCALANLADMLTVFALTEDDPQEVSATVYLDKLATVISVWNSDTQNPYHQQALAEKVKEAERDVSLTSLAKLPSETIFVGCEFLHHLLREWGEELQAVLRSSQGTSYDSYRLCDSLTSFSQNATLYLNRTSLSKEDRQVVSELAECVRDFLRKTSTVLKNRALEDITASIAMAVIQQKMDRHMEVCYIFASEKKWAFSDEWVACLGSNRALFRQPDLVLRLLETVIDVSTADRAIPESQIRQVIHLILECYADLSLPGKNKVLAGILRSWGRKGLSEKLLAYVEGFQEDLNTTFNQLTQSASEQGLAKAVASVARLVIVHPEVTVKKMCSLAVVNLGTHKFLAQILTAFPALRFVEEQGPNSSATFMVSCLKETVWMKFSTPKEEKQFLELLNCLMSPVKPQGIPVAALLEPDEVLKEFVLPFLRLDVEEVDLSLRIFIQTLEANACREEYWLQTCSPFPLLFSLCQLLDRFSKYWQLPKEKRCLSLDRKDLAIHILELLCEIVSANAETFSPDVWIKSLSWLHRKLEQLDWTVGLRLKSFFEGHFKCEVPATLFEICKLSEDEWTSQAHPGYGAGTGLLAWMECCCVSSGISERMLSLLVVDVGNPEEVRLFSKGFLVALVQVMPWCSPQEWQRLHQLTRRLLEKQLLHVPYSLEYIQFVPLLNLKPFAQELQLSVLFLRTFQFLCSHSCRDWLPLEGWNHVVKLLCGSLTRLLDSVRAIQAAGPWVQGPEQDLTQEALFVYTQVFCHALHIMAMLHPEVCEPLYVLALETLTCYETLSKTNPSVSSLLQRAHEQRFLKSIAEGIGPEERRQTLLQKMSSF
UniProt Q8TEQ6: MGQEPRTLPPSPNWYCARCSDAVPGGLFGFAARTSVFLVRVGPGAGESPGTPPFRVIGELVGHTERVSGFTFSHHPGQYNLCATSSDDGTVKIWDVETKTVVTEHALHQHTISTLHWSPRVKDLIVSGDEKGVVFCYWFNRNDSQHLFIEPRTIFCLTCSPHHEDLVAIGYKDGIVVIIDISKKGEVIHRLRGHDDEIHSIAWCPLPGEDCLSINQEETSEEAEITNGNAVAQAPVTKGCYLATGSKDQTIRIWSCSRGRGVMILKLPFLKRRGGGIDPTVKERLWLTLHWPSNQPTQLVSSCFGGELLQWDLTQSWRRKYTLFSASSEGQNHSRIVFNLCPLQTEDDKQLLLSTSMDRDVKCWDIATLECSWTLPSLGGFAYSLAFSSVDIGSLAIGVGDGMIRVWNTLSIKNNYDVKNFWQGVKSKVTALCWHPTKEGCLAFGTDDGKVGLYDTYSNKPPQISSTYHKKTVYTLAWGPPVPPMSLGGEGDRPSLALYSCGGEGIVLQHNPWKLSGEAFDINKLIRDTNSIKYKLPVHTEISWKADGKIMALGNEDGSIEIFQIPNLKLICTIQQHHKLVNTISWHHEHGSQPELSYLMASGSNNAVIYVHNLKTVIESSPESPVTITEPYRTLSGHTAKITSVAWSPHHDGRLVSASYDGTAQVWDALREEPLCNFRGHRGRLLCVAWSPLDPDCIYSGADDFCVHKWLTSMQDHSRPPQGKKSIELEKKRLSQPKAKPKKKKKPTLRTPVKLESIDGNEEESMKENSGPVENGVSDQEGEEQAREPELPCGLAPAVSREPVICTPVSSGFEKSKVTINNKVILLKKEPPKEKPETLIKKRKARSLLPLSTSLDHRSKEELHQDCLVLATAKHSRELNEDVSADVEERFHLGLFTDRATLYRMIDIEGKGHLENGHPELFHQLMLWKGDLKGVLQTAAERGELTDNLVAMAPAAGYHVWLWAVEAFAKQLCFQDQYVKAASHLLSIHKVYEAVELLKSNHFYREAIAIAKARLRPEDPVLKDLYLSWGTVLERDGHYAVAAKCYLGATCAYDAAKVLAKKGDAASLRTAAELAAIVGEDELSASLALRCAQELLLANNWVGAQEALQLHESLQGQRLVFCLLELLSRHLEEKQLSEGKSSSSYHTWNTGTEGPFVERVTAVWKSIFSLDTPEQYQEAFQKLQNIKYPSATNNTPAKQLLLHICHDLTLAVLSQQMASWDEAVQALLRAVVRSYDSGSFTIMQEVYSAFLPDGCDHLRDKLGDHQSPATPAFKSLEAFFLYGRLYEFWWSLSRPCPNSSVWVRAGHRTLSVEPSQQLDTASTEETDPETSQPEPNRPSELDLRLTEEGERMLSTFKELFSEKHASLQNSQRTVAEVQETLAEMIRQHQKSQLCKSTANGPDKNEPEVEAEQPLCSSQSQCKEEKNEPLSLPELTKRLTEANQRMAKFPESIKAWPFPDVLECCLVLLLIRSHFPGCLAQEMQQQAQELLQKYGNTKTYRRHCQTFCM
UniProt Q9UHI6: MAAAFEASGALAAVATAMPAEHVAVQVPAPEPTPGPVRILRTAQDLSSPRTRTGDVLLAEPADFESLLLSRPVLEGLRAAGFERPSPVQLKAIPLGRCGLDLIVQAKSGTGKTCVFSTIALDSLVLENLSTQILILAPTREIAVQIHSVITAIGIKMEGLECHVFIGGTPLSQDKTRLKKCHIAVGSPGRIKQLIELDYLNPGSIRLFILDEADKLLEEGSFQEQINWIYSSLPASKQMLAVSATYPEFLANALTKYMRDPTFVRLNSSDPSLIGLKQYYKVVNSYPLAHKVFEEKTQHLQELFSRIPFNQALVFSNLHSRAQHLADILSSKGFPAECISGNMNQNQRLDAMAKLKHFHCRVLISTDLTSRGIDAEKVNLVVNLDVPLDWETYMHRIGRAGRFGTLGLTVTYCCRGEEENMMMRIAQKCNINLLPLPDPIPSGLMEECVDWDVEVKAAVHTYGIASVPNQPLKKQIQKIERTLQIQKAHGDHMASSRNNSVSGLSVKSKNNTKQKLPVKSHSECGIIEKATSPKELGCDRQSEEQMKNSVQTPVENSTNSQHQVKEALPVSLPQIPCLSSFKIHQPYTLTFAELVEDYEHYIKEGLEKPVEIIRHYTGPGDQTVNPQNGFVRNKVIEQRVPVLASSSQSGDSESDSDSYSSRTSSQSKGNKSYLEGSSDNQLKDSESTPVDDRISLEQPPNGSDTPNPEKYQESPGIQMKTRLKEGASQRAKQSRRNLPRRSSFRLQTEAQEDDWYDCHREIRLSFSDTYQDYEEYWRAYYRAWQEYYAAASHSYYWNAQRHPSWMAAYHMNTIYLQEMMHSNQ

How the values were obtained:
[1] = target: GFP-Gemin2 S81A (human) (UniProt O14893); test: co-IP; GFP immunopurification: S100 extracts of doxycycline-induced (0.1 µg/mL, 24 h) Flp-In T-REx 293 cells on GFP-Trap beads, at least 2 h at 4 °C, washed 3 times with DPBS; Western blot
[2] = target: GFP-SMN wt (human) (UniProt Q16637); test: as above
[3] = target: GFP-Gemin2 S166A (human) (UniProt O14893); test: as above
[4] = target: GFP-Gemin2 S166D (human) (UniProt O14893); test: as above
[5] = target: GFP-Gemin2 S81D (human) (UniProt O14893); test: as above
[6] = target: GFP-Gemin2 wt (human) (UniProt O14893); test: as above
[7] = target: GST-Gemin2 S81A (human) (UniProt O14893); test: pull-down; recombinant GST proteins on glutathione Sepharose 4B incubated 2 h at 4 °C with HEK293T S100 (cytoplasmic) extract, washed 3 times with lysis buffer; Western blot; only the target purified
[8] = target: GST-Gemin2 wild type (wt) (human) (UniProt O14893); test: as above
[9] = target: GST-Gemin2 S81D (human) (UniProt O14893); test: as above
[10] = target: GST-Gemin2 S166A (human) (UniProt O14893); test: as above
[11] = target: GST-Gemin2 S166D (human) (UniProt O14893); test: as above

Substance	binding [1]	binding [2]	binding [3]	binding [4]	binding [5]	binding [6]	binding [7]	binding [8]	binding [9]	binding [10]	binding [11]
Gemin4 (endogenous) (from UniProt P57678 1-1058)	binds	–	binds	binds	binds	–	–	–	–	–	–
Gemin5 (endogenous) (from UniProt Q8TEQ6 1-1508)	binds	binds	binds	binds	binds	binds	–	–	–	–	–
survival motor neuron (SMN) protein (endogenous) (from UniProt Q16637 1-294)	binds	–	binds	binds	binds	binds	binds	binds	binds	binds	binds

Now from value to substance, other results behind:

binding [1]	binding [2]	binding [3]	binding [4]	binding [5]	binding [6]	Substance	binding [7]	binding [8]	binding [9]	binding [10]	binding [11]
binds	binds	binds	binds	binds	–	Gemin2 (endogenous) (from UniProt O14893 1-280)	–	–	–	–	–
binds	binds	binds	binds	binds	binds	Gemin3 (endogenous) (from UniProt Q9UHI6 1-824)	–	–	–	–	–
